Consider one substance from paper PMC7840181.

The chains behind the UniProt entries cited, without tags or fusion partners. Where a name states a change or a piece, a line headed by the entry shows the natural chain unless it says otherwise.
UniProt C0H571: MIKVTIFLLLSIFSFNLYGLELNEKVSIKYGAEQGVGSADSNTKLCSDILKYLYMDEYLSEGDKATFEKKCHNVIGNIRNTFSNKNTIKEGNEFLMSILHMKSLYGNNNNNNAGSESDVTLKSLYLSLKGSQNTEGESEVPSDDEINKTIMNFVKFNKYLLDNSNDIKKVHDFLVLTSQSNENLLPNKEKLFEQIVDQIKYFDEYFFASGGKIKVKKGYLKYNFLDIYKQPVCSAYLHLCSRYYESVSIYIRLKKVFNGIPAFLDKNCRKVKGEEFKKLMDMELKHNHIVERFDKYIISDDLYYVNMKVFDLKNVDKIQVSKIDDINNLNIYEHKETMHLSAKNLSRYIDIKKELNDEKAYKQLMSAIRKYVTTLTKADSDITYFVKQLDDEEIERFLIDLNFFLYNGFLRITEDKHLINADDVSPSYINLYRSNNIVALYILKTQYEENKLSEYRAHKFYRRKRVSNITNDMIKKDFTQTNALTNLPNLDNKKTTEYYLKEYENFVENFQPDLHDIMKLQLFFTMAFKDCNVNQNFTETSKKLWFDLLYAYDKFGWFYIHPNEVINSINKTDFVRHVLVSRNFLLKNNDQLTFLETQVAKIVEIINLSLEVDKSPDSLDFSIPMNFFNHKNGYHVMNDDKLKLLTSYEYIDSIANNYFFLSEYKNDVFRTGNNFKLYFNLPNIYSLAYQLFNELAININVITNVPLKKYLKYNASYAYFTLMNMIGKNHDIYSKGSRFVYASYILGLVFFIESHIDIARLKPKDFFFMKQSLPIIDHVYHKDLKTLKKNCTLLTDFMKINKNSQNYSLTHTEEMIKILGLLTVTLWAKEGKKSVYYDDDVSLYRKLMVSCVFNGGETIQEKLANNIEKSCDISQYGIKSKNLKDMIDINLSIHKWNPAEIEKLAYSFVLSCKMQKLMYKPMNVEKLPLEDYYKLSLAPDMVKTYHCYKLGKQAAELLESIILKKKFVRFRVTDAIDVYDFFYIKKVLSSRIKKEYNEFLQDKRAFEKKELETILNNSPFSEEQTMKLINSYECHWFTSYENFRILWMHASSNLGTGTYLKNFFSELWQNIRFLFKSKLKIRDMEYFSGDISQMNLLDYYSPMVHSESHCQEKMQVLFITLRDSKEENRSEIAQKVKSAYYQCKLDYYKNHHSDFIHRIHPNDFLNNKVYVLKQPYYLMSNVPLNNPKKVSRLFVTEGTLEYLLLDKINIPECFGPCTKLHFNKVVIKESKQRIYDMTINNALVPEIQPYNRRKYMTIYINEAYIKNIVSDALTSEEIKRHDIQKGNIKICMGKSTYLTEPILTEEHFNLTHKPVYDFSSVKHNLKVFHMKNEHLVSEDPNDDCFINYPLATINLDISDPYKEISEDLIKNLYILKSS

No constants are given. Whether binding was seen depends on the method and setting. Binding seen in cells or lysates may run through a third protein. A result given as binding can be weak or reduced; the word gives no strength. Where a sequence is shown, tags or fusion partners need not be part of it.

The target in this assay is T1, CLAG3-tv1 (CLAG3 with C-terminal 3xFLAG-3xHA-His8-Strept II tag) (Plasmodium falciparum).
T1 sequence: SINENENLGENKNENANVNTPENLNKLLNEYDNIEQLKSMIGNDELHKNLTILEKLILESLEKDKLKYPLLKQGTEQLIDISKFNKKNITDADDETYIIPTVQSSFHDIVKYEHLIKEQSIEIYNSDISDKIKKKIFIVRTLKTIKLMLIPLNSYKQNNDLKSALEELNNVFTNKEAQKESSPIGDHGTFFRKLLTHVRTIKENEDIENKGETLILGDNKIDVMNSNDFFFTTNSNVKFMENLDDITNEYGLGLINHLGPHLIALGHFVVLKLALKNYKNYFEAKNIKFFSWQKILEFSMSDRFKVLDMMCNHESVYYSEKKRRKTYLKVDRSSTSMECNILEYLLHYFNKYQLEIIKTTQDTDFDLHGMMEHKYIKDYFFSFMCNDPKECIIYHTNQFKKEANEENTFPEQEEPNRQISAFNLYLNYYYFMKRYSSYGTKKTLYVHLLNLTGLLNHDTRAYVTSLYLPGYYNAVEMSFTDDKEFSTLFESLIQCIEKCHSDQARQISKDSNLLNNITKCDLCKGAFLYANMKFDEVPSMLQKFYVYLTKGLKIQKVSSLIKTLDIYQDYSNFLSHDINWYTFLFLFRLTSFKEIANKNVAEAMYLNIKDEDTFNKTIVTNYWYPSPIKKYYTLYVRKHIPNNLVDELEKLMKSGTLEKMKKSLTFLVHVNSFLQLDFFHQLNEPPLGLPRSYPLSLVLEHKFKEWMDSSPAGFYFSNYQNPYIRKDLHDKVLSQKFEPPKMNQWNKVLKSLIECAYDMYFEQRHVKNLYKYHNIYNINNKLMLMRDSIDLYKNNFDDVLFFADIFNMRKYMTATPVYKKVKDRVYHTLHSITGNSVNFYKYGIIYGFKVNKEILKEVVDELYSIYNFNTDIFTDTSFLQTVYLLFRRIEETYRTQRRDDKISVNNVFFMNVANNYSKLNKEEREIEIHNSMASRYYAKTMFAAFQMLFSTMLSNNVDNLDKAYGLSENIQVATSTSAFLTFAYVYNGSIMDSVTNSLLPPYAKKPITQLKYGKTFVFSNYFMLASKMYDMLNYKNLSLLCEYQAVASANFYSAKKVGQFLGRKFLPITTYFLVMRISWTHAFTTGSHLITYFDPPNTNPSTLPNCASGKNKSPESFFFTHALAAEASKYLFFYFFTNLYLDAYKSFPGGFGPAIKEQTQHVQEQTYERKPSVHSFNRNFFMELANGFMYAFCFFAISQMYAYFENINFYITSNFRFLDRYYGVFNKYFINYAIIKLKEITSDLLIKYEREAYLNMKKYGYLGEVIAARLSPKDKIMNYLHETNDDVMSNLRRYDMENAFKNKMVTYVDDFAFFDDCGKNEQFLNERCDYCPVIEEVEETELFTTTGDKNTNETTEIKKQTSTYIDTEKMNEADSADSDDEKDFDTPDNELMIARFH
As to the kind of experiment: co-IP; tagged CLAG3 as bait on anti-FLAG M2 agarose, clarified freeze-thaw lysate of schizont-infected erythrocytes, 500 mM NaCl, 10 mM Tris pH 7.5, overnight at 4°C, eluted with 3xFLAG peptide; Coomassie-stained gel.

On to “RhopH2-mVenus (RhopH2 with a monomeric Venus tag at the C-terminus) (from UniProt C0H571)”, for which the binding result was “binds”.
